From PubChem BioAssay AID2685 (National Center for Advancing Translational Sciences (NCATS), 2010)
This is one part of the list. Further columns of the screen follow, without active or inactive calls. Compounds called inactive in the main read-out are mostly missing here. Words in brackets tell the shape of the fitted curve; partial curves, single points and poor fits give uncertain potencies.

Test: qHTS Assay for Lipid Storage Modulators in Drosophila S3 Cells;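 as to cell number change: cells counted by Cell Tracker Red CMTPX staining in the red channel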
Details: BODIPY lipid droplet fluorescence, 18-24 h; for cell number change: measured here: cell count max response, cells fed with added oleic acid
Summary of the method: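 Drosophila S3 cells loaded with oleic acid (400 uM, as added) and compounds at several concentrations; lipid droplets imaged by 488-nm laser-scanning cytometry, 500–530 nm intensity and object ratio to cell channel. Percent activity normalized to 20 uM Triacsin C.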

[1] = measured here: lipid fluorescence (Fed channel) AC50, cells fed with added oleic acid
[2] = measured here: cell number channel AC50, cells fed with added oleic acid

Row | SMILES | cell number change | AC50 [1] | AC50 [2]
1 | O=C(CN1CCN(S(=O)(=O)c2ccc(F)c(F)c2)CC1)Nc1ccccc1C(=O)NC1CC1 | 5.19% |  | 
2 | CCn1c(SCC(=O)c2ccccc2)nc2sc3c(c2c1=O)CCN(C)C3 |  | 103 nM [rising, full curve, poor fit] | 
3 | CCOC(=O)C1CCN(C(=O)c2ccc3c(c2)NC(=O)/C(=C\c2cccc(C)c2)S3)CC1 | -25.1% | 2910 nM [falling, partial curve] | 
4 | Cc1cccc(NS(=O)(=O)c2ccc(C)c(C(=O)N(C)C)c2)c1 | -1.18% | 13000 nM [rising, partial curve] | 
5 | COc1ccccc1C(CC(=O)Nc1ccc(Cl)cc1)c1ccc(OC(C)C)cc1 (stereo unspecified) | 32.7% |  | 2310 nM [rising, full curve]
6 | CCN1CCN(C2=C(NS(=O)(=O)c3ccccc3)C(=O)c3ccccc3C2=O)CC1 | -10.1% |  | 
7 | Fc1ccc(Nc2nc(Oc3ccc4c(c3)OCO4)nc(N3CCOCC3)n2)c(F)c1 | 4% | 2310 nM [rising, single point] | 
8 | COc1ccc(/C(C)=N/Nc2ccc(C(=O)O)cc2)c(OC)c1 | 50% |  | 20600 nM [rising, single point]
9 | CCCOc1ccc(N2C(=O)CC(N(CCCO)C(=O)CC)C2=O)cc1 (stereo unspecified) | 4.16% |  | 
10 | Cc1ccc(NS(=O)(=O)c2ccc(Br)s2)nc1 | -11.3% |  | 
11 | COc1ccccc1C(=O)Nc1c(C)cc(Br)cc1C | 20.4% | 35500 nM [rising, single point] | 
12 | CC(=O)c1c(C)[nH]c(C(=O)Nc2cccc(C#N)c2)c1C | 10.9% | 14600 nM [falling, single point] | 
13 | CC(C)(C)C1CCC(C(=O)OCC(=O)Nc2ccc3[nH]c(=O)[nH]c3c2)CC1 (stereo unspecified) | 119% | 1300 nM [rising, partial curve] | 20600 nM [rising, partial curve]
14 | CC1=N/C(=C/c2ccc([N+](=O)[O-])cc2)C(=O)N1c1ccc(Cl)cc1Cl |  | 130 nM [rising, full curve, poor fit] | 
15 | COCc1ccc(C(=O)NC2CCCc3c2cnn3-c2cc(C)cc(C)c2)s1 (stereo unspecified) | -53.4% | 65.1 nM [falling, full curve] | 164 nM [falling, full curve]
16 | COc1ccccc1C(=O)NCC(c1ccco1)N1CCc2ccccc21 (stereo unspecified) | 18.3% |  | 
17 | COc1ccc(OC)c(CNC(=O)c2ccc(C)c(NC(=O)C3=C(C)OCCS3)c2)c1 |  | 580 nM [falling, single point] | 
18 | O=C(CSc1nnc(COc2ccccc2)o1)N1CCCCC1 | 10.5% |  | 
19 | Cc1ccc2c(c1)c1c(n2CCc2ccc(C)nc2)CCN(C)C1 | -1.78% | 6510 nM [rising, single point] | 

From entry 5 as far as 6, copied from above:
Row | SMILES | cell number change | AC50 [1] | AC50 [2]
5 | COc1ccccc1C(CC(=O)Nc1ccc(Cl)cc1)c1ccc(OC(C)C)cc1 (stereo unspecified) | 32.7% |  | 2310 nM [rising, full curve]
6 | CCN1CCN(C2=C(NS(=O)(=O)c3ccccc3)C(=O)c3ccccc3C2=O)CC1 | -10.1% |  | 
